According to article PMC8734066:
No constants are given. Whether binding was seen depends on the method and setting. In cells and extracts the contact can be indirect. Some entries that bind do so weakly or less than the wild type.

The chains behind the UniProt entries cited, without tags or fusion partners. Residues count along the entry.
UniProt Q15843, residues 1-76: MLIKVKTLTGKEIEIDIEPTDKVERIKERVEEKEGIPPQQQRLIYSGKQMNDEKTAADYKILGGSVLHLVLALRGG
UniProt D3ZEF4: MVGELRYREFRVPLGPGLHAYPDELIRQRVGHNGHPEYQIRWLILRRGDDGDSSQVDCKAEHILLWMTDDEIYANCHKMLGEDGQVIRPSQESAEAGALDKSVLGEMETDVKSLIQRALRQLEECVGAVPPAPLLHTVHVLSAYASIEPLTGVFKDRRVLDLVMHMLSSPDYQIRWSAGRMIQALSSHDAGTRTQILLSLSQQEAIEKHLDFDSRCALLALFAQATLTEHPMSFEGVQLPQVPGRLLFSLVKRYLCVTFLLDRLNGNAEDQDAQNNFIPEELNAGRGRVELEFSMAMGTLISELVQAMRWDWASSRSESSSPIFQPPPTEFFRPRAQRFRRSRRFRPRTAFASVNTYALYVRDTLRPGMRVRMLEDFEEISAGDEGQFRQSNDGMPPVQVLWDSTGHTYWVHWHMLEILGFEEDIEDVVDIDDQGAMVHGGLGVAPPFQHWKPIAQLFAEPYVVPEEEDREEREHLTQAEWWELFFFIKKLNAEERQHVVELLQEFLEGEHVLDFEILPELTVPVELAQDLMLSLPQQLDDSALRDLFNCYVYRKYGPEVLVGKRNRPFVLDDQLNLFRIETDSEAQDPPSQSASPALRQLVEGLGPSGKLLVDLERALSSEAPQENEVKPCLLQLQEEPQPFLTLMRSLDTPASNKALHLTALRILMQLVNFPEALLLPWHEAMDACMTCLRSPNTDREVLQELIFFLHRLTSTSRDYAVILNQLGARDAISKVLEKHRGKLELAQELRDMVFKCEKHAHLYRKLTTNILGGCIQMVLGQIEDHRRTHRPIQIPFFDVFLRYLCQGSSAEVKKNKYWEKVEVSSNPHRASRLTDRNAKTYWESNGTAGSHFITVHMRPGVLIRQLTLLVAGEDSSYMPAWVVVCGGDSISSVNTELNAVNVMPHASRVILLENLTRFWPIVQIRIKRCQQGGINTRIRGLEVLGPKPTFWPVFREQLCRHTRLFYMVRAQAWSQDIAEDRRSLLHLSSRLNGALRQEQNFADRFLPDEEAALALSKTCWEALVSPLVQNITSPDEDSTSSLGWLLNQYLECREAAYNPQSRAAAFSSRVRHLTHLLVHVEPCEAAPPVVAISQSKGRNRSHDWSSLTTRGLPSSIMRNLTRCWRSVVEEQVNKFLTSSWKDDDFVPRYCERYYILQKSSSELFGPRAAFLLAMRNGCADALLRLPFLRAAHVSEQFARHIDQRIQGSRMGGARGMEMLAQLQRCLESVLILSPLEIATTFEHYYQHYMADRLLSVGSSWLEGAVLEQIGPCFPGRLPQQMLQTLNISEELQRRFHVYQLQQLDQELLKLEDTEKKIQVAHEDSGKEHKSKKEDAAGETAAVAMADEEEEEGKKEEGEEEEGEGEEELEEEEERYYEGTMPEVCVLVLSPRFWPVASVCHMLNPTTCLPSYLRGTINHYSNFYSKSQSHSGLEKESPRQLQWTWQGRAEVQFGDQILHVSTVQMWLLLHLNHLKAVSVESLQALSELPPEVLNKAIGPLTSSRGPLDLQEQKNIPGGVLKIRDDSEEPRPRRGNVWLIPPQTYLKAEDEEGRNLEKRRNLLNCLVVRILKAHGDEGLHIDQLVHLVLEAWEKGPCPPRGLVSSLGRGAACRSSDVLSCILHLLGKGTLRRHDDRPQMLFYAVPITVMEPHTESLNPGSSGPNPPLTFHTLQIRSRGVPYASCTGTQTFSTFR

Biological target: HA-NEDD8 (neural precursor cell-expressed developmentally down-regulated gene 8) (UniProt Q15843)
Test: co-IP; lysates of rat primary cortical neurons infected with AAV9 HA-NEDD8 (or the HA tag alone); tag-specific immunoprecipitation with anti-HA microbeads; neurons with or without TNFα and insulin for 24 h

## Cullin-7 (from UniProt D3ZEF4 1-1692)
  binding: binds
